Reference: PMC8924001
The exact form of at least one protein or probe is not confirmed. At least one verdict rests on a figure or table, not on a statement of the authors.

Amino acid sequences for entries named in this document (tags omitted).
UniProt P11940, whole entry: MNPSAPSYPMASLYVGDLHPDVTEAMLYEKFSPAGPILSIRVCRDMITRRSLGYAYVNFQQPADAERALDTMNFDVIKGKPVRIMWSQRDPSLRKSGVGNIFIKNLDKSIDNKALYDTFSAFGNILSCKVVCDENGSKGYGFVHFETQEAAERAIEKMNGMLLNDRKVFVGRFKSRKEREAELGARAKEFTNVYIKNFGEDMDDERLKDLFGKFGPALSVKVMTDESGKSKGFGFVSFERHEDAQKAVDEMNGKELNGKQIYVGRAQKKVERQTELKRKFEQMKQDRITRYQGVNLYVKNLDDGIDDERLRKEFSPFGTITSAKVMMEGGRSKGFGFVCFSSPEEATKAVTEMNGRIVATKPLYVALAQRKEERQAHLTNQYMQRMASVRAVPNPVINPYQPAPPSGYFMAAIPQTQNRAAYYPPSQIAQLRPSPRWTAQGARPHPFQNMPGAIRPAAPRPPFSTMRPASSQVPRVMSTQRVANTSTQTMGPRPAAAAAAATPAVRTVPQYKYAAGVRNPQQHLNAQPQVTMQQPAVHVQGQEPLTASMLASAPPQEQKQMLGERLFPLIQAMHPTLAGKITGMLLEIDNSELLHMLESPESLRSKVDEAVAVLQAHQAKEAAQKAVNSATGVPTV

Target: PABPC1 full-length (human) (UniProt P11940)
Test: EMSA
Settings: 15 nM RNA, 0.5 uM PABPC1, binding not altered by 1 uM cold mTOG-Psi; EMSA: 20 mM Tris pH 7.5, 2 mM MgCl2, 0.1% BSA, 3% Ficoll 400, 0.01% NP-40, room temperature, 30 min; ~250 nM RNA; 8% TBE gel; recombinant protein; residues 1-636; protein details: N-terminal 6xHis-TEV (cleaved during purification); label: radiolabel

AAAAAAAAAAAAAAAAAA [poly(A) 18 nt]: binds.
